Laboratory results from article PMC10046084.
Results are given in words; binding and its absence hold for the method and conditions named. In cells and extracts the contact can be indirect. These calls come from enrichment with a bait or labelling near it, and not all partners need be listed. Where a sequence is shown, tags or fusion partners need not be part of it.

By UniProt entry, the sequences of proteins in these tests, tags left out.
UniProt Q923T9: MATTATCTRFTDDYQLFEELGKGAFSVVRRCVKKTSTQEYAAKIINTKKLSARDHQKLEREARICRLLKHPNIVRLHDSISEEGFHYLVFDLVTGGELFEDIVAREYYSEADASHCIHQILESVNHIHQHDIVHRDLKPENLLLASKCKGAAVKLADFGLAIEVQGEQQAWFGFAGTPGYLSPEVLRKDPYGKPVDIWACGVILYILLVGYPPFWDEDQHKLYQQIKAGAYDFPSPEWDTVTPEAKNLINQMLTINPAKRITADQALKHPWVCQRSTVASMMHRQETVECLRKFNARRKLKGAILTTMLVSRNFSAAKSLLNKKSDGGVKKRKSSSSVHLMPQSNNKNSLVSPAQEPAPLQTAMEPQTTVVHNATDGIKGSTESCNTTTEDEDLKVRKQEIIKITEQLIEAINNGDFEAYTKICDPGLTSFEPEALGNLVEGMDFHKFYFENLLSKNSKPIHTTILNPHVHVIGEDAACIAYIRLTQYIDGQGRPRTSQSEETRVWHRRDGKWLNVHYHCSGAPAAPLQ
UniProt P60879: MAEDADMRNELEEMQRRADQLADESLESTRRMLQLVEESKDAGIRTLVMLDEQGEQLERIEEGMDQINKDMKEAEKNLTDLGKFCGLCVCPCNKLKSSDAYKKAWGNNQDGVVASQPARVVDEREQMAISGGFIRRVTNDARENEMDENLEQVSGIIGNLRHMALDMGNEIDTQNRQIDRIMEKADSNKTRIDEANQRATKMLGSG
UniProt P11798: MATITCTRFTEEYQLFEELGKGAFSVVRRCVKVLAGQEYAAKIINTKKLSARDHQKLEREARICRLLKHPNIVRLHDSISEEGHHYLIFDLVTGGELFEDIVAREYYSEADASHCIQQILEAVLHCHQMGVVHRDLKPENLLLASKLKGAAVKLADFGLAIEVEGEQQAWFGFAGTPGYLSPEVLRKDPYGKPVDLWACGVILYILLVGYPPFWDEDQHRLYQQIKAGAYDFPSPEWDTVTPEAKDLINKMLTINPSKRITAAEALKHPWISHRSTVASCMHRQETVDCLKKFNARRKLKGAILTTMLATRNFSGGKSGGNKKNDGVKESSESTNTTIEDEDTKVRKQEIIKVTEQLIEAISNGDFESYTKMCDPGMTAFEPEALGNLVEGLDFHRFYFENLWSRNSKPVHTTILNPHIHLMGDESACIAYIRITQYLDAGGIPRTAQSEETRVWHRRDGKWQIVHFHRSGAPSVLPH

Biological target: T1, GPR158-3×Flag-TeV-HA (G-protein-coupled receptor 158, epitope-tagged knock-in of GPR158^Tag mice) (mouse) (UniProt Q8C419)
T1 sequence: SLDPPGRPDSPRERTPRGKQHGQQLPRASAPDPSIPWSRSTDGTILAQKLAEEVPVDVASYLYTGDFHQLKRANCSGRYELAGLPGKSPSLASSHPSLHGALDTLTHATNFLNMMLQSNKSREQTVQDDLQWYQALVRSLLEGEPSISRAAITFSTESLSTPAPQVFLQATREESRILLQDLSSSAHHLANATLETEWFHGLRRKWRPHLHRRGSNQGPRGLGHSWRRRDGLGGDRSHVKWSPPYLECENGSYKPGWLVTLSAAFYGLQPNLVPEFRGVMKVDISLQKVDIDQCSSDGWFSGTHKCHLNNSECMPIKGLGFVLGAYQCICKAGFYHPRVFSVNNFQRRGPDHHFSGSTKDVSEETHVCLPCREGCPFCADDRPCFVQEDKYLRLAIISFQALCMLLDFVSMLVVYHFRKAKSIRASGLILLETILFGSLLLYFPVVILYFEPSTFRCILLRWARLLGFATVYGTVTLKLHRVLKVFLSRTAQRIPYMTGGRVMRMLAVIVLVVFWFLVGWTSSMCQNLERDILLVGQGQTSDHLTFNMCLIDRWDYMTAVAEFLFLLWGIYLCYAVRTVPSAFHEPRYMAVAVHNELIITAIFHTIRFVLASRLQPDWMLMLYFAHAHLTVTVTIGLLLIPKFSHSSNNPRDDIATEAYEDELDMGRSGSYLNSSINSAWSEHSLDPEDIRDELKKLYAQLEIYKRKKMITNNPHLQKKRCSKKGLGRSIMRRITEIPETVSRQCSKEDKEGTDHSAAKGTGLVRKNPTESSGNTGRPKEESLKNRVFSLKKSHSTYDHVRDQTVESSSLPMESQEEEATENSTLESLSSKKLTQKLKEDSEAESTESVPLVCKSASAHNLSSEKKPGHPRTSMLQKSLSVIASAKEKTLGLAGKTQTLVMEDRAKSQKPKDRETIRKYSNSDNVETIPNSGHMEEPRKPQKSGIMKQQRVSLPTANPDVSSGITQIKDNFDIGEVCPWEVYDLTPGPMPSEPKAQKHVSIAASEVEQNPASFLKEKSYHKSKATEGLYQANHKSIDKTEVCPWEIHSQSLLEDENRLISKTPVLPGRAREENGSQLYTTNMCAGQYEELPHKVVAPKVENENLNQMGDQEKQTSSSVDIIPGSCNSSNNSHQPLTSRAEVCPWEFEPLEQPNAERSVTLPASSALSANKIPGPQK
Assay: affinity purification with mass spectrometry; magnetic beads conjugated with an anti-Flag tag antibody enrich GPR158 from brain tissues of GPR158^Tag mice and wild-type mice; unique peptides of the two compared by mass spectrometry

| binding | Substance |
| --- | --- |
| binds | Camk2g (from UniProt Q923T9 1-529) |
| binds | Snap25 (from UniProt P60879 1-206) |
| binds | alpha subunit of type II calcium-calmodulin-dependent protein kinase (Camk2a) (from UniProt P11798 1-478) |
